Results taken from PubChem BioAssay AID504834 (National Center for Advancing Translational Sciences (NCATS), 2011).
Out of some 320,000 compounds screened, about 22,000 (6.9%) were called active. This list was built around the results that the source calls inconclusive (neither active nor inactive); the mix of calls is not that of the screen. Calls follow the shape of the dose curve; as a rule, active = well fitted inhibition curve with a large enough effect; inconclusive = small, poorly fitted or top-dose-only effect, or another doubt; inactive = no such curve, though single readings can be large or run the other way. A potency beside an inconclusive call is a rough fit, not a confirmed value.

test: Primary qHTS for delayed death inhibitors of the malarial parasite plastid, 96 hour incubation; conditions: P. falciparum luciferase reporter growth; series mostly up to 28.7 µM; activity change, negative = inhibition: at the top concentration
Outline: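 Delayed-death screen, second-generation endpoint: infected erythrocytes, 2% hematocrit, 0.05% parasitemia final; 96 hours at 37 C, 5% CO2; luciferase detection reagent; luminescence decrease equals reduced growth.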
% is scaled to controls: 0 for no effect and ±100 for the full control effect; potency is read from the fitted curve at half-maximal effect.

Question: With `C#CCOCCOCCOCCNc1nc(N2CCN(C(=O)[C@H](Cc3cc4ccccc4[nH]3)n3cc([C@@H](N)Cc4ccc(O)cc4)nn3)CC2)nc(N2CCN(C(=O)[C@H](Cc3cc4ccccc4[nH]3)n3cc([C@@H](N)CC(C)C)nn3)CC2)n1` as the compound, how does the Potency read?
Answer: active: 10.4 µM

Question: Which Potency does the source give for `COC(=O)C1C(=O)c2c([nH]c(C(=O)OCCSC)c2C)CC1C` (stereo not drawn) here?
Answer: active: 3.7 µM

Question: For `CC[n+]1c(C)sc2sc3ccccc3c21`, which Potency is on record?
Answer: inconclusive: 10.4 µM [inhibitor, single point]

Question: For `O=C(CSc1nnc(NC(=O)Cc2ccccc2)s1)NCC1CCCO1` (stereo not drawn), which “activity change, negative = inhibition” value is on record?
Answer: inactive: 30.6%

Question: With `CN1CCN(C(=O)c2cnn(-c3ccccc3)c2NC(=O)c2ccc([N+](=O)[O-])cc2)CC1` as the compound, how does the Potency read?
Answer: inconclusive: 18.5 µM [inhibitor, single point]

Question: For `Cc1c(Cl)cccc1NC(=S)NCCc1ccccn1`, which Potency is on record?
Answer: inconclusive: 9.28 µM [inhibitor, partial curve, poor fit]

Question: For `CC(=O)NCCC(=O)Nc1cc(S(=O)(=O)N2CCCCC2)ccc1Oc1ccccc1`, which Potency is on record?
Answer: inconclusive: 4.65 µM [inhibitor, partial curve]

Question: With `CCCc1ccc(S(=O)(=O)N2CCN(C(C)C(=O)NCc3ccccc3)CC2)cc1` (stereo not drawn) as the compound, how does the Potency read?
Answer: inconclusive: 20.8 µM [inhibitor, single point]

Question: With `C=CCn1c(SCC(=O)C(C)(C)C)nnc1-c1cccs1` as the compound, how does the Potency read?
Answer: inconclusive: 18.5 µM [inhibitor, single point]

Question: With `COC(=O)c1ccc(CSc2nnc(NC(C)C)s2)o1` as the compound, how does the Potency read?
Answer: inconclusive: 0.0415 µM [inhibitor, full curve]

Question: With `CCC(=O)Nc1cc(C(=O)OCc2ccc(C(=O)Oc3ccccc3)cc2)ccc1C` as the compound, how does the “activity change, negative = inhibition” value read?
Answer: inactive: 0.218%

Question: For `O=C(N/N=C1\CC(c2ccccc2)Oc2ccccc21)c1ccc(O)cc1` (stereo not drawn), which Potency is on record?
Answer: inconclusive: 8.28 µM [inhibitor, single point]

Question: Which Potency does the source give for `O=C(N/C(=C\c1cccnc1)C(=O)N1CCOCC1)c1ccco1` here?
Answer: inconclusive: 18.5 µM [inhibitor, single point]

Question: With `NC(=O)c1ccc(=O)n(Cc2ccc(Cl)cc2Cl)c1` as the compound, how does the “activity change, negative = inhibition” value read?
Answer: inactive: 30.4%

Question: Which Potency does the source give for `COc1ccc(S(=O)(=O)N2CCN(C(=O)C3CCC3)CC2)cc1` here?
Answer: inconclusive: 18.5 µM [inhibitor, single point]

Question: For `COc1ccc(CN2CCN(C(=O)CCC(=O)Nc3nnc(C(F)(F)F)s3)CC2)cc1F`, which Potency is on record?
Answer: inconclusive: 1.85 µM [inhibitor, partial curve]

Question: With `CCCC1S/C(=N/N=C/c2ccc(OC)cc2)N(Cc2ccc(OC)cc2)C1=O` (stereo not drawn) as the compound, how does the Potency read?
Answer: active: 10.4 µM

Question: With `CCN(CC)C(=O)c1cccc(NC(=O)c2cc(C3CC3)nc3c2cnn3C(C)C)c1` as the compound, how does the Potency read?
Answer: active: 5.22 µM
